Drawing on article doi:10.1101/2023.09.01.555812, this text covers binding for one substance.

Protein sequences, listed by entry. Tags and fused reporters are not part of them. Residues count along the entry.
UniProt P10912, residues 19-638: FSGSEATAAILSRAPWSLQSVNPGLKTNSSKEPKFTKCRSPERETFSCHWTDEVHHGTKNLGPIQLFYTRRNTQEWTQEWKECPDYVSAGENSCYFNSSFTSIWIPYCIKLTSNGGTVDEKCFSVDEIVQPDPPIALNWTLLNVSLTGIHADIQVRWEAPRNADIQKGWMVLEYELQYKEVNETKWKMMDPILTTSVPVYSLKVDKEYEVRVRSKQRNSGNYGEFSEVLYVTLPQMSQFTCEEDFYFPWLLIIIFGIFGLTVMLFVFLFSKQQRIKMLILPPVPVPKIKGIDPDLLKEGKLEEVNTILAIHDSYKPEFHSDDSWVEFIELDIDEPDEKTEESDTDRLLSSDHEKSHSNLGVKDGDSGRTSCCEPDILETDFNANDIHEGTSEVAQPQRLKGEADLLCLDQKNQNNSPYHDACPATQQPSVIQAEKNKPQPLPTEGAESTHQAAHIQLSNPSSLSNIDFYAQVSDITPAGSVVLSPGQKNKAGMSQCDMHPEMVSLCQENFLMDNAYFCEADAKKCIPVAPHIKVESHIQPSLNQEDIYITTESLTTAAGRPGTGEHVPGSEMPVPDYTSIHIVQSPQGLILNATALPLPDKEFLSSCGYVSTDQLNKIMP

These are yes or no findings as the source states them, for the method shown. Binding seen in cells or lysates may run through a third protein. Some results given as binding are weak or reduced against the parent protein; the word gives no strength.

This assay has as its target T1, human prolactin receptor (human (endogenous in T47D)) (UniProt P16471).
T1 sequence: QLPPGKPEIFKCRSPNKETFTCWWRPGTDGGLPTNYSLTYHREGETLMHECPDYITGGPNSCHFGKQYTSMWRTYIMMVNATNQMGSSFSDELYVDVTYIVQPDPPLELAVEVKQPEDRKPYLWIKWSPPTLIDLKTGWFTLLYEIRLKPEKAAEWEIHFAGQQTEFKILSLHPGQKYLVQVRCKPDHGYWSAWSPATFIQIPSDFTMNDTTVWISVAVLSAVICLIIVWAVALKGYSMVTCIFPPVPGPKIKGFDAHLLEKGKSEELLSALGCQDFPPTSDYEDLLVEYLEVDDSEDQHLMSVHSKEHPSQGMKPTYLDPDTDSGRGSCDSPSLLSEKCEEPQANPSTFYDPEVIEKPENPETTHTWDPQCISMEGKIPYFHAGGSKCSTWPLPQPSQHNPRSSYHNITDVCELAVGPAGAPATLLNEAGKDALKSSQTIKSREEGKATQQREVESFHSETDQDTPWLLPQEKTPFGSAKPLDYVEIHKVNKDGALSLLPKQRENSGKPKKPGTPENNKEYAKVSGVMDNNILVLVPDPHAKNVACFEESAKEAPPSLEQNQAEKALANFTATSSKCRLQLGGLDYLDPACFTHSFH
The experiment in a line: proximity ligation.

For the substance “human growth hormone receptor (from UniProt P10912 19-638)”, the binding entry is recorded as “binds”.
